Data taken from PubChem BioAssay AID504834 (National Center for Advancing Translational Sciences (NCATS), 2011).
The whole screen tested about 320,000 compounds, of which about 22,000 (6.9%) were called active. The inconclusive results got no clear call from the source; some entries with a clear call stand among them for comparison. Calls follow the shape of the dose curve; as a rule, active = well fitted inhibition curve with a large enough effect; inconclusive = small, poorly fitted or top-dose-only effect, or another doubt; inactive = no such curve, though single readings can be large or run the other way. Where the call is inconclusive, the potency comes from a doubtful curve fit.

Experiment: Primary qHTS for delayed death inhibitors of the malarial parasite plastid, 96 hour incubation
Settings: P. falciparum luciferase reporter growth; series mostly up to 28.7 µM; activity change, negative = inhibition: at the top concentration
In short: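 Infected RBCs, 2% Hct / 0.05% parasitemia final; luciferase-reporter P. falciparum; cpd 96 h, 37 C, 5% CO2; luciferase detection reagent; luminescence.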
% is scaled to controls: 0 for no effect and ±100 for the full control effect; potency is read from the fitted curve at half-maximal effect.

SMILES | Potency | activity change, negative = inhibition
CSc1c(CC(=O)Nc2ccccc2)n(Cc2ccccc2)c2ccccc12 | inconclusive: 1.31 µM [inhibitor, partial curve, poor fit] | 
COc1ccc2[nH]c3c(c2c1)CCN1C(=O)N([C@@H](C)C(=O)NCc2c(F)cccc2Cl)C(=O)[C@]31C | inconclusive: 13.1 µM [inhibitor, partial curve, poor fit] | 
CC(C)(C)C(=O)Nc1ccc(S(=O)(=O)NC2=NCCCCC2)cc1 | inconclusive: 3.7 µM [inhibitor, single point] | 
O=C(CN1CCOCC1)N/N=C/c1ccc(-c2cccc(Cl)c2Cl)o1 | inconclusive: 13.1 µM [inhibitor, single point] | 
NC(=O)/C(=C/c1ccco1)NC(=O)/C=C/c1ccccc1 | inconclusive: 11.7 µM [inhibitor, single point] | 
O=C(CSc1nc2ncccc2[nH]1)NC1CCCC1 | inconclusive: 4.15 µM [inhibitor, partial curve, poor fit] | 
Brc1c(-c2ccc3c(c2)OCO3)nc2ncccn12 | inconclusive: 18.5 µM [inhibitor, single point] | 
CCOc1cccc(C2C(C#N)=C(N)Oc3cc(C)oc(=O)c32)c1OCC (configuration not stated) | inconclusive: 18.5 µM [inhibitor, single point] | 
CC(C)CCOc1ccc(C(=O)NCCC(=O)N2CCOCC2)cc1 | inconclusive: 18.5 µM [inhibitor, single point] | 
COc1ccccc1C(=O)CC(=O)c1ccccc1 | inconclusive: 14.7 µM [inhibitor, single point] | 
O=C(Cn1nc(C(=O)O)c2ccccc2c1=O)Nc1cccc(S(=O)(=O)N2CCCC2)c1 |  | inactive: -0.988%
CNc1ccc2nc3ccccc3[n+](C)c2c1 | active: 0.165 µM | 
Cc1cc(C)cc(NC(=O)COC(=O)CCCC2=NS(=O)(=O)c3ccccc3N2)c1 | inconclusive: 18.5 µM [inhibitor, single point] | 
CCC1Oc2ccccc2N(CC(=O)NCCN2CCCC2)C1=O (configuration not stated) | inconclusive: 1.65 µM [inhibitor, full curve, poor fit] | 
COCC(=O)Nc1cc(Cl)ccc1C | inconclusive: 18.5 µM [inhibitor, single point] | 
Cc1cc(C)n(CC(C)NCc2c(C(=O)N3CCOCC3)nc3c(C)cccn23)n1 (configuration not stated) |  | inactive: -0.364%
COc1ccc(-c2cc(C(=O)OCc3ccccn3)c3ccccc3n2)cc1 | inconclusive: 18.5 µM [inhibitor, single point] | 
O=C(CSc1nc2ncc(Cl)cc2[nH]1)Nc1cccc(F)c1 |  | inactive: -5.17%
O=C(c1ccc(NS(=O)(=O)c2cccs2)cc1)N1CCN(c2ccccc2Cl)CC1 | inconclusive: 6.57 µM [inhibitor, partial curve, poor fit] | 
CCN1C(=O)c2cccc3c(S(=O)(=O)Nc4ccccn4)ccc1c23 | inconclusive: 6.57 µM [inhibitor, partial curve, poor fit] | 
O=C(Nc1nnc(SCc2c(Cl)cccc2Cl)s1)c1cccc([N+](=O)[O-])c1 |  | inactive: 1.35%

A different layout for eleven compounds above.
SMILES,Potency,"activity change, negative = inhibition"
COc1ccc2[nH]c3c(c2c1)CCN1C(=O)N([C@@H](C)C(=O)NCc2c(F)cccc2Cl)C(=O)[C@]31C,"inconclusive: 13.1 µM [inhibitor, partial curve, poor fit]",
CC(C)(C)C(=O)Nc1ccc(S(=O)(=O)NC2=NCCCCC2)cc1,"inconclusive: 3.7 µM [inhibitor, single point]",
O=C(CN1CCOCC1)N/N=C/c1ccc(-c2cccc(Cl)c2Cl)o1,"inconclusive: 13.1 µM [inhibitor, single point]",
NC(=O)/C(=C/c1ccco1)NC(=O)/C=C/c1ccccc1,"inconclusive: 11.7 µM [inhibitor, single point]",
CCOc1cccc(C2C(C#N)=C(N)Oc3cc(C)oc(=O)c32)c1OCC (configuration not stated),"inconclusive: 18.5 µM [inhibitor, single point]",
CC(C)CCOc1ccc(C(=O)NCCC(=O)N2CCOCC2)cc1,"inconclusive: 18.5 µM [inhibitor, single point]",
COc1ccccc1C(=O)CC(=O)c1ccccc1,"inconclusive: 14.7 µM [inhibitor, single point]",
Cc1cc(C)cc(NC(=O)COC(=O)CCCC2=NS(=O)(=O)c3ccccc3N2)c1,"inconclusive: 18.5 µM [inhibitor, single point]",
Cc1cc(C)n(CC(C)NCc2c(C(=O)N3CCOCC3)nc3c(C)cccn23)n1 (configuration not stated),,inactive: -0.364%
O=C(CSc1nc2ncc(Cl)cc2[nH]1)Nc1cccc(F)c1,,inactive: -5.17%
CCN1C(=O)c2cccc3c(S(=O)(=O)Nc4ccccn4)ccc1c23,"inconclusive: 6.57 µM [inhibitor, partial curve, poor fit]",

Going on with the list:

SMILES | Potency | activity change, negative = inhibition
Cc1cccc(C(=O)Nc2ccc(C(=O)N/N=C/c3ccc(C)o3)cc2)c1 | inconclusive: 9.28 µM [inhibitor, single point] | 
O=C(CSc1nc2ccccc2c(=O)n1CC1CCCO1)NCCc1ccccc1 (configuration not stated) | inconclusive: 10.4 µM [inhibitor, single point] | 
CCN(CC)S(=O)(=O)c1ccc(N2CCOCC2)c(NC(=O)COc2ccccc2C)c1 | active: 2.94 µM | 
COc1ccc(NC(=O)CS(=O)CC(=O)Nc2ccc(F)cc2F)cc1 (configuration not stated) |  | inactive: 111%
C=CCn1c(=O)c(CCC(=O)Nc2ccc(N3CCOCC3)cc2)nc2cc(C(F)(F)F)ccc21 | inconclusive: 10.4 µM [inhibitor, single point] | 
CCOC(=O)CN1C(=O)CSc2ccc(S(=O)(=O)N3CCOCC3)cc21 | inconclusive: 18.5 µM [inhibitor, single point] | 
Cc1ccccc1Cn1c(C)nc2ccc([N+](=O)[O-])cc2c1=O | inconclusive: 9.28 µM [inhibitor, single point] | 
CC1CCCN(S(=O)(=O)c2ccc(C(=O)Nc3sc4c(c3C(N)=O)CCN(C)C4)cc2)C1 (configuration not stated) | inconclusive: 2.62 µM [inhibitor, full curve] | 
Cc1ccc(S(=O)(=O)c2cc3c(=O)n4ccccc4nc3n(CC3CCCO3)c2=N)cc1C (configuration not stated) |  | inactive: -20.3%
O=S(=O)(Nc1cccc(-c2ccc(N3CCCCCC3)nn2)c1)c1ccccc1Cl | inconclusive: 11.7 µM [inhibitor, single point] | 
CCOc1cc(-c2c(C#N)c(=O)[nH]c3c2c(C)nn3-c2ccc(F)cc2)ccc1O |  | inactive: -3.42% [at 5.75 µM]
CCOC(=O)c1c(CSc2ccccc2)n(C)c2ccc(O)c(CN3CCN(C)CC3)c12 | inconclusive: 18.5 µM [inhibitor, single point] | 
O=C1CC(Nc2ccccc2)C(=O)N1c1ccc(N2CCOCC2)cc1 (configuration not stated) | inconclusive: 0.147 µM [inhibitor, full curve, poor fit] | 
COc1cc(/C=N/NC(=O)CSc2ccccn2)ccc1OC(C)C |  | inactive: 71.1%
c1nc(NC2CCCCCC2)c2[nH]cnc2n1 | inconclusive: 0.928 µM [inhibitor, full curve] | 
COc1ccccc1S(=O)(=O)N1CCN(S(=O)(=O)c2cccs2)CC1 | inconclusive: 13.1 µM [inhibitor, single point] | 
Cc1cc(C(=O)N/N=C/c2ccccn2)n[nH]1 |  | inactive: 45.2%
COc1ccc(CNC(=O)C(=O)NCCC2CCCCN2S(=O)(=O)c2ccccc2)cc1 (configuration not stated) | inconclusive: 10.4 µM [inhibitor, single point] | 
COc1ccc2nc(NC(=O)CSc3nc4ccccc4o3)sc2c1 | inconclusive: 18.5 µM [inhibitor, single point] | 
O=C(CCNS(=O)(=O)c1cccs1)Nc1ccccc1F | inconclusive: 7.38 µM [inhibitor, partial curve, poor fit] | 
CCOc1ccccc1C(=O)NC1CCN(CC(=O)Nc2cc(OC)ccc2OC)CC1 |  | inactive: 0%
